Experiments:
[1] = 177Lu labelling (radio-HPLC); settings: for radiochemical yield (highest, as stated in text): Lu-177, pH 5.0, 95 °C, 20–40 min
[2] = 64Cu labelling (radio-HPLC)
[3] = Cu-64, pH 6.05, 0 min (upon mixing at room temperature)
[4] = Cu-64, pH 6.05, 40 °C, 20 min (text: 30 min)

Row | SMILES | radiochemical yield (overall yield) ([1]; Lu-177, pH 5.01, 95 °C, 5 min) | radiochemical yield (overall yield) ([1]; Lu-177, pH 5.01, 95 °C, 10 min) | radiochemical yield (overall yield) ([1]; Lu-177, pH 5.01, 95 °C, 20 min) | radiochemical yield (overall yield) ([1]; Lu-177, pH 5.01, 95 °C, 30 min) | radiochemical yield (overall yield) ([1]; Lu-177, pH 5.01, 95 °C, 40 min) | radiochemical yield (overall yield) [2, 3] | radiochemical yield (overall yield) [2, 4] | radiochemical yield (overall yield) ([1]; Lu-177, pH 7.00, 95 °C, 20 min) | radiochemical yield (highest, as stated in text) [1] | further results
1 | O=C(O)CN1CCN(CC(=O)O)CCN(CC(=O)O)CCN(CC(=O)O)CC1 [DOTA, 1,4,7,10-tetraazacyclododecane-1,4,7,10-tetraacetic acid] | 22.25% | 27.86% | 33.93% | 36.14% | 38.17% | 88.99% | 95.06% |  |  | 
2 | CC[C@H]1CN(CC(=O)O)[C@@H](CC)CN(CC(=O)O)[C@@H](CC)CN(CC(=O)O)[C@@H](CC)CN1CC(=O)O [L2] | 71.10% | 85.50% | 91.92% | 94.33% | 95.47% | 100% | 100% | 97.24% |  | radiochemical yield (overall yield) ([1]; Lu-177, pH 5.01, 85 °C, 10 min): 75.40%; radiochemical yield (overall yield) ([1]; Lu-177, pH 5.01, 85 °C, 20 min): 82.68%; radiochemical yield (overall yield) ([1]; Lu-177, pH 5.01, 85 °C, 40 min): 86.23%
3 | O=C([O-])CN1CCN(CC(=O)[O-])CCN(CC(=O)[O-])CCN(CC(=O)[O-])CC1.[177Lu+3].[H+] [[^177LuDOTA]^−, reference compound] |  |  |  |  |  |  |  |  | 38% | 
4 | CC[C@H]1CN(CC(=O)[O-])[C@@H](CC)CN(CC(=O)[O-])[C@@H](CC)CN(CC(=O)[O-])[C@@H](CC)CN1CC(=O)[O-].[177Lu+3] [[^177LuL2]^−] |  |  |  |  |  |  |  | 97% | over 95% | temperature required to obtain the 177Lu complex ([1]; Lu-177): at least 80 °C
5 | O=C([O-])CN1CCN(CC(=O)O)CCN(CC(=O)[O-])CCN(CC(=O)O)CC1.[64Cu+2] [^64CuDOTA, reference compound] |  |  |  |  |  | 89% | 95% |  |  | 
6 | CC[C@H]1CN(CC(=O)O)[C@@H](CC)CN(CC(=O)[O-])[C@@H](CC)CN(CC(=O)O)[C@@H](CC)CN1CC(=O)[O-].[64Cu+2] [^64CuL2] |  |  |  |  |  | near quantitative | 100% |  |  | 

Reference: publication PMC5829242, “Chiral DOTA chelators as an improved platform for biomedical imaging and therapy applications” (Nature Communications, 2018)
